# According to publication PMC8578637:
# Chains of the proteins cited; added tags and fusions are not shown.
# UniProt Q8NFD5: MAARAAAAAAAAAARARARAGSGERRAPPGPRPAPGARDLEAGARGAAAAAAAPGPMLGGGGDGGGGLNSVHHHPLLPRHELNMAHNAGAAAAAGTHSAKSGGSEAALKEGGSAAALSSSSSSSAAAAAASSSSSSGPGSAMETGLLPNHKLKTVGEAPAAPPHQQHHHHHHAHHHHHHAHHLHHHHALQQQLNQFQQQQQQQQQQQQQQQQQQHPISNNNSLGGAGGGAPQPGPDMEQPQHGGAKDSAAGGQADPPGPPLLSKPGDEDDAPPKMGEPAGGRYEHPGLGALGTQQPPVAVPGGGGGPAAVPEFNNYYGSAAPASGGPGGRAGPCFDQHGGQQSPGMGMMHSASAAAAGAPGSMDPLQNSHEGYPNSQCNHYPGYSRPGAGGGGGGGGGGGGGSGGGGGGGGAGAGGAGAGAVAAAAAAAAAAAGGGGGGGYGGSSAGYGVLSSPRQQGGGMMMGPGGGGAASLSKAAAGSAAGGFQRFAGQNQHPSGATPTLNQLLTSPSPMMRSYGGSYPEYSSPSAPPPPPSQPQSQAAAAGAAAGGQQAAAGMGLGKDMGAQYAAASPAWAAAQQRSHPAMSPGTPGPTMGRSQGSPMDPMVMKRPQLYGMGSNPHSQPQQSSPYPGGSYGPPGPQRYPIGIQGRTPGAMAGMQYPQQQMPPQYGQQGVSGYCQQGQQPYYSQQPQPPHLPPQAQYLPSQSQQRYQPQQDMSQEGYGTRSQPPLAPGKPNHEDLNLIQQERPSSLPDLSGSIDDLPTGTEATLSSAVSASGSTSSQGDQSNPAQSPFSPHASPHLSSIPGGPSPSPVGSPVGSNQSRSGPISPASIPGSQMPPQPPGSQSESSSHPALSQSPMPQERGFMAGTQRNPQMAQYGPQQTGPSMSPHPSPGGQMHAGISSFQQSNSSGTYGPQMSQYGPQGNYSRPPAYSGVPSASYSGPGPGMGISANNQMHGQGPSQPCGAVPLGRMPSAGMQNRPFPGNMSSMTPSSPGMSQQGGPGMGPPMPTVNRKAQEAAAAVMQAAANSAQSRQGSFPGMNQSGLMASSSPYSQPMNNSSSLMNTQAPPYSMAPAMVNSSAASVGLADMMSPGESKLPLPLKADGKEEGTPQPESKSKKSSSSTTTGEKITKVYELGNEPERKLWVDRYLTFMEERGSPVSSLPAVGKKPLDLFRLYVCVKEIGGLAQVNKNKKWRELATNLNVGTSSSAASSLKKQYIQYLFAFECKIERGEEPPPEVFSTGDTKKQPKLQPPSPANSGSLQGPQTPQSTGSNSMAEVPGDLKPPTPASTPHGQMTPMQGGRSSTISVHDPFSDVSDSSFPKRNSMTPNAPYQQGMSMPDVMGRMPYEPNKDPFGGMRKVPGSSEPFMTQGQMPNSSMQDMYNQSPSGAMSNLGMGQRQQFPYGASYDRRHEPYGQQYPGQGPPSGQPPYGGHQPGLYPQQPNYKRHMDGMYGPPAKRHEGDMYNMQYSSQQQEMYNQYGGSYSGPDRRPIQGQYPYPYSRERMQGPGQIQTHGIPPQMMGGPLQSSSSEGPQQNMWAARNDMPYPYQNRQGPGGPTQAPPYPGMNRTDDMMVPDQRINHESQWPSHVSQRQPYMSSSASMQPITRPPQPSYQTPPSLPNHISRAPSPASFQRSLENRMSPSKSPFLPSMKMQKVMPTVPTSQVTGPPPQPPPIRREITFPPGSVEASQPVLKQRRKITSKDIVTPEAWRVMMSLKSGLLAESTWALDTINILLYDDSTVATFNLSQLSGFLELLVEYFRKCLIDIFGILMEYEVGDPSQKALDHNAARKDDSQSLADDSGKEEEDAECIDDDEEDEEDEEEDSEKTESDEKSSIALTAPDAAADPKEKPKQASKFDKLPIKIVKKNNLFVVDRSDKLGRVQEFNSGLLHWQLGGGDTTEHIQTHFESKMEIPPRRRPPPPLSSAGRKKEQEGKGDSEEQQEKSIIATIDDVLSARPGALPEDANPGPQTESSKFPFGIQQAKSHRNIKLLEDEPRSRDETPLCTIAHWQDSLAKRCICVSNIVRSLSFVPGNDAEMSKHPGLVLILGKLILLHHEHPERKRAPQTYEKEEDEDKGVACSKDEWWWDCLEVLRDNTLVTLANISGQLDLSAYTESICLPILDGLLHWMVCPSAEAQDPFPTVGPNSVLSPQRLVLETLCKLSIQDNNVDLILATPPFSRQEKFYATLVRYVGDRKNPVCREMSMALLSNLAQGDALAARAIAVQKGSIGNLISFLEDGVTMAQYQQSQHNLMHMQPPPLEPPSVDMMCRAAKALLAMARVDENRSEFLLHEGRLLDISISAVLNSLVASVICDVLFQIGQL
# UniProt P51531: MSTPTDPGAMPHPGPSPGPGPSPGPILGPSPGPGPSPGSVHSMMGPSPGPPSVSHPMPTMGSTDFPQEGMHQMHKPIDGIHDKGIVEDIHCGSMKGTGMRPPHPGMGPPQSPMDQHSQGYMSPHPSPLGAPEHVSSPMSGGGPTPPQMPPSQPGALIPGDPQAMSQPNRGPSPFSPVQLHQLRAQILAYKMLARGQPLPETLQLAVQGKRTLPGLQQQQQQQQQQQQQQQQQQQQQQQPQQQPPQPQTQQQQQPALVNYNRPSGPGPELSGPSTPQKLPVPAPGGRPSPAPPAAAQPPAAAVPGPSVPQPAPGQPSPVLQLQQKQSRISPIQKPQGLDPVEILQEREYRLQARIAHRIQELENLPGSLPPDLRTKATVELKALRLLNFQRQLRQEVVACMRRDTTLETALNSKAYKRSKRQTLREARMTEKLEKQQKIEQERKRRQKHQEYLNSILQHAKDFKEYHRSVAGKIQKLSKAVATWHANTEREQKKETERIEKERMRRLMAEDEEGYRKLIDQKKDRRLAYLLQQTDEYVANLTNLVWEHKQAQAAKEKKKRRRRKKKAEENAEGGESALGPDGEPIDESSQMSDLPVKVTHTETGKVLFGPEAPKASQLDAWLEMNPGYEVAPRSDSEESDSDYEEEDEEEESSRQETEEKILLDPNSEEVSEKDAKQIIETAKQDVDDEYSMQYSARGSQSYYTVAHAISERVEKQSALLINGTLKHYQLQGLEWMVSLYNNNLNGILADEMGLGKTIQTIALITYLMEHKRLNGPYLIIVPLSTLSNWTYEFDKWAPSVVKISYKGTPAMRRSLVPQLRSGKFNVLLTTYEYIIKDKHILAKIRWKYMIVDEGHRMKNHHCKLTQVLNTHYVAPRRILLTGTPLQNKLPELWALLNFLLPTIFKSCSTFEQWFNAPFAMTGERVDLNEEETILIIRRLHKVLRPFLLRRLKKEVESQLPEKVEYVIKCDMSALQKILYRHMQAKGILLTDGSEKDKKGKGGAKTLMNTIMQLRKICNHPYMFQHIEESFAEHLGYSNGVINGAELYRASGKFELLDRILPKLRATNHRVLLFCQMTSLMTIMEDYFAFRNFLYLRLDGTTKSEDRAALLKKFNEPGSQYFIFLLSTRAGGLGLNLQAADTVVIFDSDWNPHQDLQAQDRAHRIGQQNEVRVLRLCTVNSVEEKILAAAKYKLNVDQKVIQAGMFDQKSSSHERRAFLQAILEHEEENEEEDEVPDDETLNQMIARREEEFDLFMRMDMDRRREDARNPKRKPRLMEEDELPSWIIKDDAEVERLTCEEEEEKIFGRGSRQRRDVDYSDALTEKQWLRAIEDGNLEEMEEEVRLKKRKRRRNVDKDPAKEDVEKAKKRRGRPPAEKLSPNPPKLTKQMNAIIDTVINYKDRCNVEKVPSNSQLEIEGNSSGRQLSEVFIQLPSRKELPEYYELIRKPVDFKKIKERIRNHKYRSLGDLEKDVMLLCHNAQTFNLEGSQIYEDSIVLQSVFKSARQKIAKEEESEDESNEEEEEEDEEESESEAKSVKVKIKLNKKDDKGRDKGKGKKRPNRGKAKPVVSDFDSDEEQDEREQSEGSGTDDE
# UniProt P51532: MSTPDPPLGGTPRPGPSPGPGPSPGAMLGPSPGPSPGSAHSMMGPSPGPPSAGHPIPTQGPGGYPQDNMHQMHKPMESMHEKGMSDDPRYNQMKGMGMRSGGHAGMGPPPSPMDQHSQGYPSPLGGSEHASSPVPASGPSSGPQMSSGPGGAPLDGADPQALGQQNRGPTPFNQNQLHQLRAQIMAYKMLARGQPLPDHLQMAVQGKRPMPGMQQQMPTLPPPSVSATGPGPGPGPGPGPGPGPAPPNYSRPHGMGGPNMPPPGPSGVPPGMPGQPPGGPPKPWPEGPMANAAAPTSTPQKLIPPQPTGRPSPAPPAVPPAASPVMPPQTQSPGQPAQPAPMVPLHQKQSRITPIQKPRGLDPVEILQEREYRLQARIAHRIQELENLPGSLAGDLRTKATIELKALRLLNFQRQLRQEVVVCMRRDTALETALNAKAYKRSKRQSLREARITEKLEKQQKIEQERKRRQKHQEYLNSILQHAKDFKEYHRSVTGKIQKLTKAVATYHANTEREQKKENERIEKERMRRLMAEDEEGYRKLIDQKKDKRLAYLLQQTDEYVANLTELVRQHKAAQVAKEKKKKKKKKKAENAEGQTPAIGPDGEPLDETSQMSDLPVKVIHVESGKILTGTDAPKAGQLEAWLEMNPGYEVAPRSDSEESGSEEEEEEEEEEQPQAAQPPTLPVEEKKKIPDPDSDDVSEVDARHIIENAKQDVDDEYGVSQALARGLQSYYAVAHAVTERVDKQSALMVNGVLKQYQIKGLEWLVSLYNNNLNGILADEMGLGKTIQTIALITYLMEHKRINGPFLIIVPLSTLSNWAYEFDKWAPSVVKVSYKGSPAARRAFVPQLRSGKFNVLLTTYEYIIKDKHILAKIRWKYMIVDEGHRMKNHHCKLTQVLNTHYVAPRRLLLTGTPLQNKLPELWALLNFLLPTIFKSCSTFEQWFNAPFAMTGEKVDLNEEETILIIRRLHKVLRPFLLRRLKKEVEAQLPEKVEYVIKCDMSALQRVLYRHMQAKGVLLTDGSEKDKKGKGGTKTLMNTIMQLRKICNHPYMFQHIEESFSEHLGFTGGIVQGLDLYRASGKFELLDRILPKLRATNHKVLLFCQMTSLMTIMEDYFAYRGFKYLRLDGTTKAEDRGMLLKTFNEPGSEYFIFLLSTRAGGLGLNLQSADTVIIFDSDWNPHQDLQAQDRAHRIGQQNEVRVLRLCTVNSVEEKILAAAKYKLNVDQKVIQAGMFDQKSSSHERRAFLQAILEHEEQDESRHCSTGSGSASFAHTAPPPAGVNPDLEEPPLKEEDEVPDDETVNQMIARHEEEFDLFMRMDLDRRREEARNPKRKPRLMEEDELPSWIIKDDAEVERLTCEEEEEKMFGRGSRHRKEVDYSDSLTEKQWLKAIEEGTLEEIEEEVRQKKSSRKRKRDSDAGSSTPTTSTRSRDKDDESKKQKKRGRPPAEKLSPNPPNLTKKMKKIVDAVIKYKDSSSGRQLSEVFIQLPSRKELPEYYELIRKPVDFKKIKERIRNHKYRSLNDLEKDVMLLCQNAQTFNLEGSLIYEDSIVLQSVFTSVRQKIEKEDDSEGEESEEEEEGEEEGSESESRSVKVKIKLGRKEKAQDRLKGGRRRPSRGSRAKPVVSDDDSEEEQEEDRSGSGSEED
# These are yes or no findings as the source states them, for the method shown. Binding seen in cells or lysates may run through a third protein. A yes stands for co-enrichment or nearness to the bait. Other partners may have been found. No binding means not detected with the bait.
# Target: ARID1B (human (endogenous in iPSC-derived cells)) (UniProt Q8NFD5)
# Assay: affinity purification with mass spectrometry; immunoprecipitation of endogenous ARID1B (6 ug ARID1B antibody, Dynabeads Protein A, 3 h at 4 °C) from 1.5 mg dialysed nuclear extract of control cells at day 5 of iPSC-to-CNCC differentiation; washes with co-IP buffer (100 mM NaCl, 0.1% NP-40); glycine pH 3.0 elution; LC-MS/MS; control IP with beads only
row,binding,Substance
1,binds,SALL4 (from UniProt Q9UJQ4 1-1053)
2,no binding,SMARCA2 (from UniProt P51531 1-1590)
3,binds,SMARCA4 (from UniProt P51532 1-1647)
